Test results published in patent US5354676A, “Recombinant modified thermostable NAD-dependent dehydrogenases and process for their production” (The University of Bristol, priority 1989, dated 1994).
Read-outs that look alike come from different tables or passages of the source. For at least one compound, name, drawing or mass did not settle the structure.

The chains behind the UniProt entries cited, without tags or fusion partners.
UniProt P00344, whole entry Q86M/K87V/P88S/A222G/A223G: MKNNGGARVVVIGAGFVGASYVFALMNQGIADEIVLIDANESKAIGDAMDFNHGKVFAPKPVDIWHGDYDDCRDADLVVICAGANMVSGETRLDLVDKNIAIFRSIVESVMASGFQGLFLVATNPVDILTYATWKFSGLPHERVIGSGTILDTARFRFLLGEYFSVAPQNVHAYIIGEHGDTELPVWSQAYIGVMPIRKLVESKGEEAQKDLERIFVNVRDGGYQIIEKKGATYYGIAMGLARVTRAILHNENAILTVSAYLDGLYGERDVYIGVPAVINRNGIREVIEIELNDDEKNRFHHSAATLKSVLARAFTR
UniProt P00344, whole entry A222G/A223G: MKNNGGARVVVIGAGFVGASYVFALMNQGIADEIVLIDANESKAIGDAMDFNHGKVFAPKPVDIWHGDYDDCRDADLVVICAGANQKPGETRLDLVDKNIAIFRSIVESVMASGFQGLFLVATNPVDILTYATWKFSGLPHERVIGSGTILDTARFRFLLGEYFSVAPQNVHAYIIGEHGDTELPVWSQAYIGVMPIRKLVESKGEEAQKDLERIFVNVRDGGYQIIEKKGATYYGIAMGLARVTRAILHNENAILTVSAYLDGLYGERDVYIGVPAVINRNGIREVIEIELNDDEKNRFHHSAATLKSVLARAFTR

Experiments:
[1] = molecular target: T1, Bacillus stearothermophilus NAD-dependent L-lactate dehydrogenase, wild type (WT) (Geobacillus stearothermophilus, UniProt P00344); assay type: biochemical; settings: for kcat: pH 6
T1 construct: made in house; host or cells: E. coli

[2] = molecular target: T2, Bacillus stearothermophilus L-lactate dehydrogenase variant MVS/GG (102-5 QKP→MVS and 235-6 AA→GG) (Geobacillus stearothermophilus, UniProt P00344, A222G/A223G/K87V/P88S/Q86M); assay type: biochemical
T2 construct: made in house; host or cells: E. coli TG2, vector pKK223-3

[3] = molecular target: Bacillus stearothermophilus L-lactate dehydrogenase variant GG (235-6 AA→GG) (Geobacillus stearothermophilus, UniProt P00344, A222G/A223G); settings: pH 6

SMILES | kcat ([1]; + 5 mM FBP) | kcat ([1]; No FBP) | kcat/KM ([2]; No FBP, pH 6) | kcat ([3]; + 5 mM FBP) | kcat/KM ([3]; + 5 mM FBP) | kcat/KM ([3]; No FBP) | rate of reduction of alphaketo isocaproate (term of ratio 18.5:0.33) ([1]; no unit) | rate of reduction of alphaketo isocaproate (term of ratio 18.5:0.33) ([2]; no unit)
CC(=O)C(=O)O [Pyruvate] | 250 s⁻¹ | 250 s⁻¹ | 190 M⁻¹ s⁻¹ | 167 s⁻¹ | 42000 M⁻¹ s⁻¹ | 665 M⁻¹ s⁻¹ |  | 
CC(C)CC(=O)C(=O)O [α-KIC, Ketoisocaproate] |  |  |  |  |  |  | 0.33 | 18.5
